Primary screen of a compound library

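Whole-cell assay for inhibitors of Mycobacterium tuberculosis growth, labelled Cornell in the record; the read-out is not stated. The concentration is filed as 10 mM, unlikely as a test dose, so the dose is not known. Higher means stronger inhibition (inferred from two other growth screens of the library). Of about 53,000 compounds tested this way, about 900 (1.7%) reached 50% or more in at least one test.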

Each number is a percent effect as filed.
The controls that fix the scale are not given in the record; negative values are as filed.
Compounds were drawn at random from those tested, without regard to their results.

O=C(NCCc1nnc2n1CCC2)c1ccccc1OC1CCCC1 gave 16.11%.
Cc1cc(N(C)CCOc2ccccc2F)nc(N)n1 gave 23.3%.
Cn1nc(-c2ccc(F)cc2)cc1C(=O)NCCn1ccnc1 gave 14.67%.
Cn1ccnc1C(=O)N1CCC2(CCCN2CC2CC2)CC1.O=C(O)C(F)(F)F gave -19.32%.
CS(=O)(=O)NCC(Cc1cccc(F)c1)N1CCNC1=O (centres unmarked) gave -2.523%.
Cc1ccccc1CN1CCN(c2ncnc3c2NC(=O)CN3)CC1 gave -36.56%.
CCC(C)(C)NC(=O)C1CC(=O)N(CC2CC2)C1 (centres unmarked) gave 2.504%.
CCC(C)C(=O)NCc1c(C)nn(C)c1N1CCCN(C)CC1 (centres unmarked) gave -7.89%.
CC(C)Nc1nc2c(cc1C(=O)N(C)C)CCNCC2.O=C(O)C(F)(F)F.O=C(O)C(F)(F)F gave 19.75%.
CC(C)c1noc(OCc2cccc(C#N)c2)n1 gave 8.04%.
COC(=O)CC1CCCCN1CC(=O)NCCc1ccc(F)cc1 (centres unmarked) gave 12.75%.
COCCN(Cc1ccccc1)c1cc(C)ncn1 gave 19.57%.
COc1ccc(CCC(=O)NCc2cc(C)on2)cc1 gave -48.92%.
Cc1cccc(C2CCN(S(=O)(=O)c3cn(C)cn3)CC2)n1 gave -15.43%.
CC1CN(CC(=O)Nc2cccnc2)CCN1c1nccs1 (centres unmarked) gave 4.518%.
CCOC(=O)N[C@H]1C[C@@H](C(=O)NCCc2cccc(Cl)c2)N(C)C1 gave 3.482%.
CC(C)N1CCN(C(=O)c2csc3nc(-c4ccc(Cl)cc4)cn23)CC1 gave 16.66%.
CC1CCN(CCCNC(=O)C2CCCCC2)CC1 gave -23.5%.
CCc1nc(-c2cncnc2C2CCNC2)no1 (centres unmarked) gave -3.417%.
COc1ccc(C(=O)NCCCC2(C3OCCO3)CCOCC2)cc1 gave -4.698%.
[H][C@@]12CCN(C(=O)c3cscn3)[C@]1([H])CN(S(C)(=O)=O)C2 gave 16.39%.
CC(C)NC(=O)N1CCCCCC1C1CCN(c2ncccn2)CC1 (centres unmarked) gave -13.2%.
O=C(Cc1n[nH]c(-c2cncc(Br)c2)n1)NCc1ccccn1 gave 8.932%.
[H][C@@]12CNC(=O)N1CCN(C1CCN(C)CC1)C2 gave -34.22%.
CC(=O)Cn1nc(-c2ccccc2F)ccc1=O gave 6.771%.
Cc1ccc(N2CCC3(CC2)CCN(C2CCOC2)CC3)nn1.O=C(O)C(F)(F)F (centres unmarked) gave 19.49%.
O=C(C1CCCc2[nH]ncc21)N1CCCC1 (centres unmarked) gave -6.593%.
CN(C)C(=O)CNC(=O)c1cc2c(s1)CCN2S(C)(=O)=O gave -43.03%.
Cc1ccc(CNC(=O)CN(C)CC2CCN(CCO)CC2)s1 gave 37.08%.
[H][C@@]12C[C@H](C(=O)NC)[C@@]([H])(CN(C(=O)Nc3ccc(CC)cc3)C1)O2 gave 8.339%.
COCCN(C)C(C(=O)O)c1ccc(Cl)c(F)c1 (centres unmarked) gave -23.65%.
Cc1nc2cc(F)cc(C(=O)N3CCN(CC(C)O)CC3)c2nc1C (centres unmarked) gave -10.95%.

Some entries from above, unchanged:

compound,Percent Effect
[H][C@@]12CNC(=O)N1CCN(C1CCN(C)CC1)C2,-34.22
[H][C@@]12C[C@H](C(=O)NC)[C@@]([H])(CN(C(=O)Nc3ccc(CC)cc3)C1)O2,8.339
CCOC(=O)N[C@H]1C[C@@H](C(=O)NCCc2cccc(Cl)c2)N(C)C1,3.482

Source: ChEMBL document CHEMBL3988442, “University of Dundee, Small-Polar-MMV Screening Library” (2021).